# Experimental data from the supplement of paper PMC9135407.
# “And” between values parts separate entries of the source, which are not always exact repeats. Identical values can stand only once. Counter-ions that a name gives are not always drawn. ± gives the standard deviation of the averaged measurements. Some of the results follow. Part of the spread comes from offsets between plates or batches.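 Assay uses culture-activated primary human stellate myofibroblasts; lipid droplet recovery indicates inactivation. Measured: proportion of Hoechst-counted cells over a plate-specific Bodipy cutoff, duplicate wells, DMSO and nortriptyline as per-plate negative and positive controls. A hit scores, control-normalized, above the plate's top-tenth-percentile nortriptyline wells or ranks among its three best wells. Final well concentrations not reported.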
# System: primary human hepatic stellate cells (donor 1)
# Test: percent Bodipy-positive cells; higher = more lipid droplet accumulation
# Conditions: 48 h
# [1] = library stock concentration: 80 uM
# [2] = library stock concentration: 400 uM
# [3] = library stock concentration: 2 mM
# [4] = library stock concentration: 3.33 mM
# [5] = library stock concentration: 10 mM
# [6] = library stock concentration: 1 mM
smiles,measurement,setting,value
Nc1ccc2ncnc(NCCc3ccc(Oc4ccccc4)cc3)c2c1,percent Bodipy-positive cells,[1],12.92 ± 0.037%
same,percent Bodipy-positive cells,[2],17.6 ± 1.4%
same,percent Bodipy-positive cells,[3],14.5 ± 3%
same,percent Bodipy-positive cells,[4],10.7 ± 1%
Oc1c(Br)cc(Br)c2cccnc12 [Broxyquinoline],percent Bodipy-positive cells,[4],9.97 ± 0.6%
same,percent Bodipy-positive cells,[5],21.9% and 14.7%
COc1cc2c(cc1OC)-c1cc3nc4ccccc4nc3n1C(C)(C)C2,percent Bodipy-positive cells,[5],58 ± 9%
CCC(=O)O[C@H]1CC[C@H]2[C@@H]3CCc4cc(O)ccc4[C@H]3CC[C@]12C [Estradiol propionate],percent Bodipy-positive cells,library stock concentration: 6.1 mM,65.1 ± 5.8%
same,percent Bodipy-positive cells,[5],71.9 ± 2.5%
O=C(Nc1cc(C(F)(F)F)cc(C(F)(F)F)c1)c1cc(Cl)ccc1O,percent Bodipy-positive cells,[4],67.2 ± 5.5%
O=C(Nc1cc(C(F)(F)F)cc(C(F)(F)F)c1)c1cc(Cl)ccc1O [IKK-2 Inhibitor V],percent Bodipy-positive cells,[4],13.8 ± 3.8%
CN(C)[C@@H]1C(O)=C(C(N)=O)C(=O)[C@@]2(O)C(O)=C3C(=O)c4c(O)cccc4[C@@](C)(O)[C@H]3C[C@@H]12 [Tetracycline hydrochloride],percent Bodipy-positive cells,,22.9 ± 7.7%
same,percent Bodipy-positive cells,[5],16.2 ± 2.8%
CN(C)[C@@H]1C(O)=C(C(N)=O)C(=O)[C@@]2(O)C(O)=C3C(=O)c4c(O)cccc4[C@@](C)(O)[C@H]3C[C@@H]12 [Tetracycline],percent Bodipy-positive cells,library stock concentration: 4.5 mM,7.2 ± 1.5%
CN(C)[C@@H]1C(O)=C(C(N)=O)C(=O)[C@@]2(O)C(O)=C3C(=O)c4c(O)cccc4[C@@](C)(O)[C@H]3C[C@@H]12,percent Bodipy-positive cells,[5],33.2 ± 2.3%
CCN(CC)CCNC(=O)c1ccc(NS(C)(=O)=O)cc1 [Sematilide monohydrochloride monohydrate],percent Bodipy-positive cells,[5],35.3 ± 13%
"O=C1N[C@H](C(=O)O)CS1 [4-Thiazolidinecarboxylic acid, 2-oxo-, (R)- [CAS]]",percent Bodipy-positive cells,[5],8.42 ± 7%
C[C@H](N[C@@H](CCc1ccccc1)C(=O)O)C(=O)N1CCC[C@H]1C(=O)O,percent Bodipy-positive cells,[5],7.5 ± 4.2%
C[C@H](N[C@@H](CCc1ccccc1)C(=O)O)C(=O)N1CCC[C@H]1C(=O)O [Enalaprilat dihydrate],percent Bodipy-positive cells,[5],13.9 ± 1.2%
C[C@H](N[C@@H](CCc1ccccc1)C(=O)O)C(=O)N1CCC[C@H]1C(=O)O [Enalaprilat Dihydrate],percent Bodipy-positive cells,[4],10.2 ± 0.79%
same,percent Bodipy-positive cells,[5],26.3 ± 22%
C[C@H](N[C@@H](CCc1ccccc1)C(=O)O)C(=O)N1CCC[C@H]1C(=O)O [Enalaprilat],percent Bodipy-positive cells,library stock concentration: 5.7 mM,7.34 ± 3.9%
NC(=O)N1CCC(CC(=O)N2CCC([C@H]3c4ncc(Br)cc4CCc4cc(Cl)cc(Br)c43)CC2)CC1 [Lonafarnib],percent Bodipy-positive cells,[4],18.2 ± 0.41%
same,percent Bodipy-positive cells,[5],64.2 ± 5.9%
O=C1NC(=O)/C(=C\c2cccc(C(F)(F)F)c2)S1 [PIM12 kinase inhibitor V],percent Bodipy-positive cells,[1],9.46 ± 6.5%
same,percent Bodipy-positive cells,[2],13 ± 4.1%
same,percent Bodipy-positive cells,[3],9.49 ± 3.1%
same,percent Bodipy-positive cells,[5],7.13 ± 2.1%
CC(=O)[C@@]12O[C@](C)(c3ccccc3)O[C@@H]1C[C@H]1[C@@H]3CCC4=CC(=O)CC[C@]4(C)[C@H]3CC[C@@]12C,percent Bodipy-positive cells,[5],19.7 ± 0.45%
NC(=O)N[C@@H](CCC(=O)O)C(=O)O,percent Bodipy-positive cells,[5],30.9 ± 16%
COCCCC/C(=N\OCCN)c1ccc(C(F)(F)F)cc1 [Fluvoxamine maleate],percent Bodipy-positive cells,,52 ± 13%
same,percent Bodipy-positive cells,[4],38.3 ± 5.6%
same,percent Bodipy-positive cells,[5],61.7% and 51.5%
COCCCC/C(=N\OCCN)c1ccc(C(F)(F)F)cc1 [Fluvoxamine],percent Bodipy-positive cells,[5],66 ± 8.4%
CN(C)CCC=C1c2ccccc2Sc2ccc(Cl)cc21 [Chlorprothixene],percent Bodipy-positive cells,[5],98.2 ± 1.9%
CCCCCCCCCCCCCCCCOC[C@H](COP(=O)([O-])OCC[N+](C)(C)C)SC(=O)CCCCCC [Heptanoyl thio-PC],percent Bodipy-positive cells,[6],16.5 ± 3.1%
C[C@]12CCC(=O)C=C1CC[C@@H]1[C@@H]2C(=O)C[C@@]2(C)[C@H]1CC[C@]2(O)C(=O)CO,percent Bodipy-positive cells,[5],3.98 ± 1.4%
C[C@]12CCC(=O)C=C1CC[C@@H]1[C@@H]2C(=O)C[C@@]2(C)[C@H]1CC[C@]2(O)C(=O)CO [Cortisone],percent Bodipy-positive cells,,23.8 ± 3.2%
same,percent Bodipy-positive cells,[5],38.2 ± 4.8%
COC(=O)[C@H](c1ccccc1Cl)N1CCc2sccc2C1 [Clopidogrel sulfate],percent Bodipy-positive cells,library stock concentration: 4.8 mM,9.27 ± 0.73%
same,percent Bodipy-positive cells,library stock concentration: 6.2 mM,5.35 ± 0.37%
same,percent Bodipy-positive cells,[5],36.7 ± 3%
COC(=O)[C@H](c1ccccc1Cl)N1CCc2sccc2C1 [clopidogrel],percent Bodipy-positive cells,[5],35.4 ± 2.2%
COC(=O)[C@H](c1ccccc1Cl)N1CCc2sccc2C1 [Clopidogrel],percent Bodipy-positive cells,[4],9.83 ± 5.2%
same,percent Bodipy-positive cells,[5],20.5 ± 0.92%
CC/C=C\C/C=C\C/C=C\C/C=C\C/C=C\CCCC(=O)O [Eicosapentaenoic acid (20:5 n-3)],percent Bodipy-positive cells,[6],5.67 ± 4.6%
CC/C=C\C/C=C\C/C=C\C/C=C\C/C=C\CCCC(=O)O [Eicosapentaenoic Acid],percent Bodipy-positive cells,[6],10.6 ± 1.9%
O=C1/C(=C/c2cccs2)CC/C1=C\c1cccs1,percent Bodipy-positive cells,[5],32.4 ± 12%
CCCCC1CCC(c2nc(-c3ccncc3)no2)CC1 (stereo unspecified),percent Bodipy-positive cells,[6],6.76 ± 0.13%
same,percent Bodipy-positive cells,[5],9.54 ± 4.6%
CC1CCN(c2cc(N3CCN(C)CC3)ccc2NC(=O)c2cc(C#N)c[nH]2)CC1,percent Bodipy-positive cells,[5],92.9 ± 4.3%
COc1ccc(NC(=O)c2cc(OCCCN(C)C)nn2Cc2ccccc2)cc1.Cl [CFM 1571 hydrochloride],percent Bodipy-positive cells,[5],71.4 ± 2.7%
Nc1ccc(S(=O)(=O)NC(=O)c2ccccc2)cc1 [Sulfabenzamide],percent Bodipy-positive cells,,10.4 ± 7.6%
same,percent Bodipy-positive cells,library stock concentration: 7.2 mM,16 ± 2.3%
same,percent Bodipy-positive cells,[5],14.3 ± 6%
CCC=CCC=CCC=CCC=CCCCCC(=O)OCC [Stearidonic Acid ethyl ester],percent Bodipy-positive cells,[6],13.8 ± 3.2%
C[N+](C)(C)CCOP(=O)(O)OP(=O)([O-])OC[C@H]1O[C@@H](n2ccc(N)nc2=O)[C@H](O)[C@@H]1O [Cytidine 5'-diphosphocholine sodium salt hydrate],percent Bodipy-positive cells,[5],35.6 ± 9.9%
C[N+](C)(C)CCOP(=O)(O)OP(=O)([O-])OC[C@H]1O[C@@H](n2ccc(N)nc2=O)[C@H](O)[C@@H]1O [Citicoline],percent Bodipy-positive cells,[5],37 ± 6.1%
CCCCCOc1ccc(-c2ccc(-c3ccc(C(=O)N[C@H]4C[C@@H](O)[C@@H](O)NC(=O)[C@@H]5[C@@H](O)[C@@H](C)CN5C(=O)[C@H]([C@@H](C)O)NC(=O)[C@H]([C@H](O)[C@@H](O)c5ccc(O)cc5)NC(=O)[C@@H]5C[C@@H](O)CN5C(=O)[C@H]([C@@H](C)O)NC4=O)cc3)cc2)cc1,percent Bodipy-positive cells,[4],11.9 ± 0.73%
same,percent Bodipy-positive cells,[5],64.2 ± 2.8%
C=C(CC)C(=O)c1ccc(OCC(=O)O)c(Cl)c1Cl [Ethacrynic acid],percent Bodipy-positive cells,,17.8 ± 2%
same,percent Bodipy-positive cells,library stock concentration: 6.6 mM,8.61% and 5.09%
same,percent Bodipy-positive cells,[5],4.33 ± 0.77%
CC(C)c1nc(N(C)S(C)(=O)=O)nc(-c2ccc(F)cc2)c1/C=C/[C@@H](O)C[C@@H](O)CC(=O)O [Rosuvastatin Calcium],percent Bodipy-positive cells,[4],7.22 ± 2.9%
same,percent Bodipy-positive cells,[5],31.8 ± 25%
CC(C)c1nc(N(C)S(C)(=O)=O)nc(-c2ccc(F)cc2)c1/C=C/[C@@H](O)C[C@@H](O)CC(=O)O [Rosuvastatin],percent Bodipy-positive cells,[5],36.6 ± 1.1%
